Assay results taken from publication PMC10163288.
The list shows a part of the results.

B1: il10ra_site1_normal_mot_HHH_b1_07380_000000129_0001_1_20_H_._HHH_b1_06779_0001_0000200024_0000001_0 (protein)
chain: SSSSTEDHEIYKLSREVAELIAEGDEEEAEELLEEAIKYAREVGNRNMLFNLEHLEKILESSSSS
B2: il10ra_site1_sap_25_mot_HHH_b2_05323_000000159_0001_1_18_H_._HHH_b1_07802_0001_0000300036_0000001_0_0001 (protein)
chain: SSSSSEDEERREELEREAKELEEEGDPEEAARVLFEAARLAAELHDRELAERLVEEFIRLSSSSS
B3: il10ra_site1_sap_19_mot_HHH_b1_05860_000000142_0001_1_19_H_._HHH_b1_07641_0002_0000400026_0000002_0_0001 (protein)
chain: SSSSDEEVEELFEQAEEALKEGDSEKALRLVWRAVHLAAELDDRELYEEIYELLHKIANASSSSS
B4: il10ra_site1_sap_25_mot_HHH_b1_04100_af2_000000180_0001_1_19_H_._HHH_b1_04026_0001_0000100001_0000003_0_0001 (protein)
chain: SSSSNLERHIEHMLRAIEHARKAGDEEYVRLALKFVKASAEANNDEEAERLVEELEERLRSSSSS
B5: il10ra_site1_sap_24_mot_HHH_b2_02386_000000054_0001_1_20_H_._HHH_b2_03865_af2_0001_0000300025_0000002_0_0001 (protein)
chain: SSSSSEEEEELERLLERIEELLKNGNPEEALEVIQEALHLAFQLSDEETLRELWELAKEVASSSS
B6: il10ra_site1_normal_mot_HHH_b2_06795_000000133_0001_42_56_H_._HHH_b2_02785_0001_0000100001_0000001_0 (protein)
chain: SSSSDEERRRISEIFQRASKLIREGDEEEVRKLIEELERLAEELNDERAKQAVRFLKLLLSSSSS
B7: il10ra_site1_sap_14_mot_47763b419dcba15278d0659274068abf_0001_af2_000000068_0001_35_48_H_._HHH_b1_06234_0001_0000300013_0000001_0_0001 (protein)
chain: SSSSDEIQRVAELTLEAFRLALRGNPEEAEKVLEEAEELAEKSNDPRAERMIRDLLKAIRASSSS
B8: il10ra_site1_normal_mot_HHH_b1_01827_000000263_0001_1_19_H_._HHH_b2_04613_af2_0001_0000300016_0000001_0 (protein)
chain: SSSSTTELFERVRELIERASELFREGNPEEARELLEEARELAEEANNELLRFSVEHALRALSSSS
B9: il10ra_site1_sap_25_mot_HHH_b1_01779_000000096_0001_43_57_H_._HHH_b2_01312_af2_0001_0000400022_0000001_0_0001 (protein)
chain: SSSSDELLQRALELFQRAFRLALRGNPEEARELAEEAEELAEEANDERLLKMIRDLLESLSSSSS
B10: il10ra_site1_normal_mot_3af0db62db2b275566dae2e03bf881fa_0001_000000003_0001_37_50_H_._HHH_b1_07148_af2_0001_0000600029_0000001_0_af2pred_0001 (protein)
chain: SSSSSSQEELVLEAILYAARFTPDPEAARALLEFAVRLAREVGNEELLEEAEELLEELNSSSSSS
B11: il10ra_site1_normal_mot_HHH_b2_07144_000000289_0001_1_18_H_._HHH_b1_03935_0001_0000100008_0000001_1 (protein)
chain: SSSSSEEAEELYELSREVAHLHREGDEEEAKRLLEEAIELAEELGNFNILFALELLLRQLSSSSS
B12: il10ra_site1_sap_19_mot_HHH_b1_00329_000000081_0001_1_16_H_._HHH_b1_03754_0001_0000500040_0000001_1_0001 (protein)
chain: SSSSSEEVEEEVERLLEEAEKVDAQEMFKLLEKAIELATKNNDPELVRKVMEALHKLLHNSSSSS
B13: il10ra_site1_normal_mot_HHH_b1_06994_000000193_0001_40_55_H_._HHH_b1_04886_0001_0000200028_0000001_0 (protein)
chain: SSSSDQEEELVRAALRLVEQVRENGDPRAARFLLWSARFLAEEINNPELLREVEELEEELNSSSS
B14: il10ra_site1_sap_25_mot_HHH_b1_02999_af2_000000239_0001_42_56_H_._HEEHE_1486_0001_0000400041_0000002_0_0001 (protein)
chain: SSSSSEEEIEKLLEELERLIEEGDEEEALHLALRILRLIYRLGNWELLRELWRLLEELRESSSSS
B15: il10ra_site1_sap_17_mot_b26a303360aa2756ef5b79665ce52f45_0001_000000179_0001_1_11_H_._HHH_b2_06946_0001_0000400005_0000001_0_0001 (protein)
chain: SSSSTAAEELVESALESARIARERNNEEYLRLALRYARNTAENHNNEELRELVEKVEEELHSSSS
B16: il10ra_site1_normal_mot_HHH_b1_01821_000000158_0001_23_39_H_._HHH_b1_08068_af2_0001_0000200003_0000001_0 (protein)
chain: SSSSSDEEEEVRELLEEAEQIEDHEERLEVLLKALRLAIELNNPELLQEVWEVFRRLAGSSSSSS
B17: il10ra_site1_normal_mot_HHH_b2_05323_000000159_0001_1_18_H_._HHH_b2_08300_0001_0000100006_0000001_0 (protein)
chain: SSSSSSDEVLELSLEAFRLALRGNPEEARKVLEEALELAEEDGDERLLRVLRHLLDVLSSSSSSS
B18: il10ra_site1_normal_mot_HHH_b1_01880_000000285_0001_23_39_H_._ems_3hC_921_af2_0001_0000800051_0000001_0_af2pred_0001 (protein)
chain: SSPEEAKKLLEEAEKLAEEQNDEHLRIAVRFWKDLLEEAAELNDEHAVEAVRWAAEALLEALKTS
B19: il10ra_site1_sap_23_mot_6792f2186577ebd01aa11eb855ed7b57_0001_af2_000000149_0001_1_16_H_._HHH_b1_03116_af2_0001_0000300011_0000002_0_0001 (protein)
chain: SSSSSDEEEEEVEELLEEAKRIEDPRERAEVLAEALRVASEGKNPELLRLVDRVAIELYWSSSSS
B20: il10ra_site1_normal_mot_HHH_b1_05704_af2_000000048_0001_1_18_H_._HHH_b1_02442_0001_0000300018_0000002_0 (protein)
chain: SSSSSSLQEAYEAAERAAELLQEGNREEAEELLREVLERLEELGNELAEFVIRHLVRALASSSSS
B21: il10ra_site1_sap_24_mot_HHH_b1_03559_000000151_0001_22_39_H_._HHH_b1_04589_0001_0000100002_0000001_0_0001 (protein)
chain: SSSSDWFEELAELLRELMRAKTEEEFEELSRLVEEVAEKANNELARWQVRFVVELVERELSSSSS
B22: il10ra_site1_normal_mot_HHH_b2_08186_000000021_0001_43_56_H_._HHH_b1_08296_af2_0001_0000300006_0000001_0 (protein)
chain: SSSSSEEEREIEELREELKELAEKGDRERFNRVYQRILQLVYLLGDAELLQELWELLKKLESSSS
B23: il10ra_site1_sap_24_mot_HHH_b1_08440_000000140_0001_1_20_H_._HHH_b1_07647_0001_0000200002_0000001_0_0001 (protein)
chain: SSSSSTTEELYELLREAIELLSEGNPEEAEKIAEELLREAEEAGNWAFVHVARLILRLAGSSSSS
B24: il10ra_site1_normal_mot_HHH_b1_03031_af2_000000117_0001_17_33_H_._HHH_b2_01802_af2_0001_0000100002_0000001_0 (protein)
chain: SSSSDEEEEEAKELLEEAKQIEDPEEARKLVQRALWLAARAKDDELSVEAIRLLAELLQGSSSSS
B25: il10ra_site1_normal_mot_HHH_b2_07521_000000141_0001_20_37_H_._HHH_b1_05319_0001_0000200015_0000001_0_af2pred_0001 (protein)
chain: SSSSSRDEEAVRLSLRIAKFLAEQGDPEAARFILKAAKELAKKFNNEELKELIEEVEERISSSSS
B26: il10ra_site1_sap_25_mot_HHH_b1_03574_000000194_0001_1_18_H_._HHH_b1_02077_0001_0000200019_0000001_0_0001 (protein)
chain: SSSSSEEHRELFELSRRAAELLSEGNPEEAEEVLEEARRLAEEANNQLMLINIRYLLKDLNSSSS
B27: il10ra_site1_normal_mot_HHH_b2_07144_000000289_0001_1_18_H_._HHH_b2_07029_0001_0000100001_0000001_0 (protein)
chain: SSSSTEELEEVYRLSREAAELLREGNPEEAEEVAREALRLAEENNSPAFVFALRHLIRDISSSSS
B28: il10ra_site1_sap_13_mot_HHH_b2_04993_000000082_0001_43_55_H_._0a28df53656836c8faf163f96bad2529_0001_1_af2_0001_0000100004_0000002_0_0001_af2pred_0001 (protein)
chain: SSSSDEEEERLEELLEEVEELLRQGDPEEAARLLFEVAKLAAELNDDEILKLVQELVHLLFSSSS
B29: il10ra_site1_normal_mot_HHH_b1_05056_000000217_0001_1_20_H_._HHH_b2_04661_af2_0001_0000500034_0000002_0 (protein)
chain: SSSSDEEELEELLEKLEELAEKGDRERFLELVLRLSELIFRLGDKEALQRLWELVREFLRRSSSS
B30: il10ra_site1_normal_mot_HHH_b2_00984_000000042_0001_1_20_H_._HHH_b2_03105_af2_0001_0000300022_0000001_0 (protein)
chain: SSSSDEEEELERLLEKLEELLEEGDPHKISRLAQRVIRLATRLNDPEALKKAWEIIKKADSSSSS
B31: il10ra_site1_sap_11_mot_HHH_b1_05357_000000034_0001_23_39_H_._HHH_b2_04001_0001_0000100005_0000001_0_0001 (protein)
chain: SSSSDELVRRIYELLRELVELVHEGDEEEVERVYEEIKELLEQLGSPVLEKILEMLEKVLNSSSS
B32: il10ra_site1_normal_mot_HHH_b1_06788_af2_000000238_0001_19_36_H_._HHH_b2_00174_0001_0000100003_0000001_0 (protein)
chain: SSSSDVARRVYELAREIAEVINEGDEERARELLEELEELAEEANNFIAKFLVEILKRALESSSSS
B33: il10ra_site1_normal_mot_HHH_b2_06602_000000226_0001_1_16_H_._HHH_b2_07200_af2_0001_0000400022_0000001_0_af2pred_0001 (protein)
chain: SSSSNEEEERLLELYIRAYRLLERGNPEEAEKLVEEAEELAKELGDEAARFALELLKRLLSSSSS
B34: il10ra_site1_normal_mot_1cde5897893f3d1588f92be3b001cdf2_0001_af2_000000130_0001_54_65_H_._HHH_b1_04438_af2_0001_0000700007_0000002_0 (protein)
chain: SSSSDEEELKKLEEELEEALKEGDEELILQLVLELSRLAIQLNDHEATELVLEAARLVKEASSSS
B35: il10ra_site1_normal_mot_HHH_b1_03782_000000126_0001_43_57_H_._HHH_b1_06763_0001_0000200021_0000001_1_af2pred_0001 (protein)
chain: SSSSDKEEEIEELLERIERLQEEGNPEEAFKLIIKAAELIRELGDEELLRELRRVLKRILSSSSS
B36: il10ra_site1_sap_11_mot_HHH_b1_05357_000000034_0001_23_39_H_._HHH_b1_01022_0001_0000300019_0000001_0_0001 (protein)
chain: SSSSSDREEVYRLLEEAIKLRREGNPEEAEKVLERAREIAEELGDRVLLMVIEFLEEQIQRSSSS
B37: il10ra_site1_sap_26_mot_HHH_b2_03531_000000286_0001_43_57_H_._HHH_b2_05322_0001_0000100001_0000001_0_0001_af2pred_0001 (protein)
chain: SSSSDEEELEELIRQIERAIEEGDTEEAQRLLRELVELARKLNDPEVLRIARELSRLIVEKSSSS

Target: il10ra, Q13651
Experiment: yeast display titration

Apparent Kd, inactive:
B1 no binding seen
B2 no binding seen
B3 no binding seen
B4 no binding seen
B5 no binding seen
B6 no binding seen
B7 no binding seen
B8 no binding seen
B9 no binding seen
B10 no binding seen
B11 no binding seen
B12 no binding seen
B13 no binding seen
B14 no binding seen
B15 no binding seen
B16 no binding seen
B17 no binding seen
B18 no binding seen
B19 no binding seen
B20 no binding seen
B21 no binding seen
B22 no binding seen
B23 no binding seen
B24 no binding seen
B25 no binding seen
B26 no binding seen
B27 no binding seen
B28 no binding seen
B29 no binding seen
B30 no binding seen
B31 no binding seen
B32 no binding seen
B33 no binding seen
B34 no binding seen
B35 no binding seen
B36 no binding seen
B37 no binding seen

Retrieved one by one from the entries so far, 2 records:
Apparent Kd, inactive:
B33 no binding seen
B30 no binding seen
